Source: paper PMC11852926
Results are given in words; binding and its absence hold for the method and conditions named. Binding seen in cells or lysates may run through a third protein. Binding calls can cover weak binding; strength is not graded here. Tags and fused reporters may be left off the sequences shown.

Assays:
[1] = target: GST-CT (GST fused to the 38 aa cytoplasmic tail of the IBV S protein) (infectious bronchitis virus (IBV), strain YN); experiment: pull-down; GST or GST-CT immobilised on glutathione Sepharose 4B, washed with PBS, incubated overnight at 4°C with bacterial lysates containing His-COPA constructs; eluted with 20 mM reduced glutathione; Western blot; only the target purified
[2] = target: Flag-tagged IBV spike protein, wild type (S-WT) (infectious bronchitis virus (IBV), strain YN); experiment: co-IP; HEK 293T co-transfected with Flag-tagged S and one HA-tagged COPI subunit; 48 h; lysates precipitated with anti-Flag M2 affinity gel; Western blot

Binder | binding [1] | binding [2]
His-COPA-Δ324–774 (protein, UniProt P53621) MLTKFETKSARVKGLSFHPKRPWILTSLHNGVIQLWDYRMCTLIDKFDEHDGPVRGIDFHKQQPLFVSGGDDYKIKVWNYKLRRCLFTLLGHLDYIRTTFFHHEYPWILSASDDQTIRVWNWQSRTCVCVLTGHNHYVMCAQFHPTEDLVVSASLDQTVRVWDISGLRKKNLSPGAVESDVRGITGVDLFGTTDAVVKHVLEGHDRGVNWAAFHPTMPLIVSGADDRQVKIWRMNESKAWEVDTCRGHYNNVSCAVFHPRQELILSNSEDKSIRVWDMSKRTGVQTFRRDHDRFWVLAAHPNLNLFAAGHDGGMIVFKLERERKETFDPEKETIPDIDPNAKLLQPPAPIMPLDTNWPLLTVSKGFFEGTIASKGKGGALAADIDIDTVGTEGWGEDAELQLDEDGFVEATEGLGDDALGKGQEEGGGWDVEEDLELPPELDISPGAAGGAEDGFFVPPTKGTSPTQIWCNNSQLPVDHILAGSFETAMRLLHDQVGVIQFGPYKQLFLQTYARGRTTYQALPCLPSMYGYPNRNWKDAGLKNGVPAVGLKLNDLIQRLQLCYQLTTVGKFEEAVEKFRSILLSVPLLVVDNKQEIAEAQQLITICREYIVGLSVETERKKLPKETLEQQKRICEMAAYFTHSNLQPVHMILVLRTALNLFFKLKNFKTAATFARRLLELGPKPEVAQQTRKILSACEKNPTDAYQLNYDMHNPFDICAASYRPIYRGKPVEKCPLSGACYSPEFKGQICRVTTVTEIGKDVIGLRISPLQFR | no binding | 
His-COPA-Δ1–318 (domain or fragment, UniProt P53621 319-1224) LERERPAYAVHGNMLHYVKDRFLRQLDFNSSKDVAVMQLRSGSKFPVFNMSYNPAENAVLLCTRASNLENSTYDLYTIPKDADSQNPDAPEGKRSSGLTAVWVARNRFAVLDRMHSLLIKNLKNEITKKVQVPNCDEIFYAGTGNLLLRDADSITLFDVQQKRTLASVKISKVKYVIWSADMSHVALLAKHAIVICNRKLDALCNIHENIRVKSGAWDESGVFIYTTSNHIKYAVTTGDHGIIRTLDLPIYVTRVKGNNVYCLDRECRPRVLTIDPTEFKFKLALINRKYDEVLHMVRNAKLVGQSIIAYLQKKGYPEVALHFVKDEKTRFSLALECGNIEIALEAAKALDDKNCWEKLGEVALLQGNHQIVEMCYQRTKNFDKLSFLYLITGNLEKLRKMMKIAEIRKDMSGHYQNALYLGDVSERVRILKNCGQKSLAYLTAATHGLDEEAESLKETFDPEKETIPDIDPNAKLLQPPAPIMPLDTNWPLLTVSKGFFEGTIASKGKGGALAADIDIDTVGTEGWGEDAELQLDEDGFVEATEGLGDDALGKGQEEGGGWDVEEDLELPPELDISPGAAGGAEDGFFVPPTKGTSPTQIWCNNSQLPVDHILAGSFETAMRLLHDQVGVIQFGPYKQLFLQTYARGRTTYQALPCLPSMYGYPNRNWKDAGLKNGVPAVGLKLNDLIQRLQLCYQLTTVGKFEEAVEKFRSILLSVPLLVVDNKQEIAEAQQLITICREYIVGLSVETERKKLPKETLEQQKRICEMAAYFTHSNLQPVHMILVLRTALNLFFKLKNFKTAATFARRLLELGPKPEVAQQTRKILSACEKNPTDAYQLNYDMHNPFDICAASYRPIYRGKPVEKCPLSGACYSPEFKGQICRVTTVTEIGKDVIGLRISPLQFR | no binding | 
HA-tagged δ subunit of COPI (protein, UniProt P48444 1-511) MVLLAAAVCTKAGKAIVSRQFVEMTRTRIEGLLAAFPKLMNTGKQHTFVETESVRYVYQPMEKLYMVLITTKNSNILEDLETLRLFSRVIPEYCRALEENEISEHCFDLIFAFDEIVALGYRENVNLAQIRTFTEMDSHEEKVFRAVRETQEREAKAEMRRKAKELQQARRDAERQGKKAPGFGGFGSSAVSGGSTAAMITETIIETDKPKVAPAPARPSGPSKALKLGAKGKEVDNFVDKLKSEGETIMSSSMGKRTSEATKMHAPPINMESVHMKIEEKITLTCGRDGGLQNMELHGMIMLRISDDKYGRIRLHVENEDKKGVQLQTHPNVDKKLFTAESLIGLKNPEKSFPVNSDVGVLKWRLQTTEESFIPLTINCWPSESGNGCDVNIEYELQEDNLELNDVVITIPLPSGVGAPVIGEIDGEYRHDSRRNTLEWCLPVIDAKNKSGSLEFSIAGQPNDFFPVQVSFVSKKNYCNIQVTKVTQVDGNSPVRFSTETTFLVDKYEIL |  | binds
HA-tagged β′ subunit of COPI (protein, UniProt P35606 1-906) MPLRLDIKRKLTARSDRVKSVDLHPTEPWMLASLYNGSVCVWNHETQTLVKTFEVCDLPVRAAKFVARKNWVVTGADDMQIRVFNYNTLERVHMFEAHSDYIRCIAVHPTQPFILTSSDDMLIKLWDWDKKWSCSQVFEGHTHYVMQIVINPKDNNQFASASLDRTIKVWQLGSSSPNFTLEGHEKGVNCIDYYSGGDKPYLISGADDRLVKIWDYQNKTCVQTLEGHAQNVSCASFHPELPIIITGSEDGTVRIWHSSTYRLESTLNYGMERVWCVASLRGSNNVALGYDEGSIIVKLGREEPAMSMDANGKIIWAKHSEVQQANLKAMGDAEIKDGERLPLAVKDMGSCEIYPQTIQHNPNGRFVVVCGDGEYIIYTAMALRNKSFGSAQEFAWAHDSSEYAIRESNSIVKIFKNFKEKKSFKPDFGAESIYGGFLLGVRSVNGLAFYDWDNTELIRRIEIQPKHIFWSDSGELVCIATEESFFILKYLSEKVLAAQETHEGVTEDGIEDAFEVLGEIQEIVKTGLWVGDCFIYTSSVNRLNYYVGGEIVTIAHLDRTMYLLGYIPKDNRLYLGDKELNIISYSLLVSVLEYQTAVMRRDFSMADKVLPTIPKEQRTRVAHFLEKQGFKQQALTVSTDPEHRFELALQLGELKIAYQLAVEAESEQKWKQLAELAISKCQFGLAQECLHHAQDYGGLLLLATASGNANMVNKLAEGAERDGKNNVAFMSYFLQGKVDACLELLIRTGRLPEAAFLARTYLPSQVSRVVKLWRENLSKVNQKAAESLADPTEYENLFPGLKEAFVVEEWVKETHADLWPAKQYPLVTPNEERNVMEEGKDFQPSRSTAQQELDGKPASPTPVIVASHTANKEEKSLLELEVDLDNLELEDIDTTDINLDEDILDD |  | binds
His-COPA-Δ816–1224 (domain or fragment, UniProt P53621 1-815) MLTKFETKSARVKGLSFHPKRPWILTSLHNGVIQLWDYRMCTLIDKFDEHDGPVRGIDFHKQQPLFVSGGDDYKIKVWNYKLRRCLFTLLGHLDYIRTTFFHHEYPWILSASDDQTIRVWNWQSRTCVCVLTGHNHYVMCAQFHPTEDLVVSASLDQTVRVWDISGLRKKNLSPGAVESDVRGITGVDLFGTTDAVVKHVLEGHDRGVNWAAFHPTMPLIVSGADDRQVKIWRMNESKAWEVDTCRGHYNNVSCAVFHPRQELILSNSEDKSIRVWDMSKRTGVQTFRRDHDRFWVLAAHPNLNLFAAGHDGGMIVFKLERERPAYAVHGNMLHYVKDRFLRQLDFNSSKDVAVMQLRSGSKFPVFNMSYNPAENAVLLCTRASNLENSTYDLYTIPKDADSQNPDAPEGKRSSGLTAVWVARNRFAVLDRMHSLLIKNLKNEITKKVQVPNCDEIFYAGTGNLLLRDADSITLFDVQQKRTLASVKISKVKYVIWSADMSHVALLAKHAIVICNRKLDALCNIHENIRVKSGAWDESGVFIYTTSNHIKYAVTTGDHGIIRTLDLPIYVTRVKGNNVYCLDRECRPRVLTIDPTEFKFKLALINRKYDEVLHMVRNAKLVGQSIIAYLQKKGYPEVALHFVKDEKTRFSLALECGNIEIALEAAKALDDKNCWEKLGEVALLQGNHQIVEMCYQRTKNFDKLSFLYLITGNLEKLRKMMKIAEIRKDMSGHYQNALYLGDVSERVRILKNCGQKSLAYLTAATHGLDEEAESLKETFDPEKETIPDIDPNAKLLQPPAPIMPLDTNWPLLTVSK | binds | 
